For one molecule, binding results are on record in paper doi:10.1101/2025.09.05.674500.

By UniProt entry, the sequences of proteins in these tests, tags left out.
UniProt Q13148: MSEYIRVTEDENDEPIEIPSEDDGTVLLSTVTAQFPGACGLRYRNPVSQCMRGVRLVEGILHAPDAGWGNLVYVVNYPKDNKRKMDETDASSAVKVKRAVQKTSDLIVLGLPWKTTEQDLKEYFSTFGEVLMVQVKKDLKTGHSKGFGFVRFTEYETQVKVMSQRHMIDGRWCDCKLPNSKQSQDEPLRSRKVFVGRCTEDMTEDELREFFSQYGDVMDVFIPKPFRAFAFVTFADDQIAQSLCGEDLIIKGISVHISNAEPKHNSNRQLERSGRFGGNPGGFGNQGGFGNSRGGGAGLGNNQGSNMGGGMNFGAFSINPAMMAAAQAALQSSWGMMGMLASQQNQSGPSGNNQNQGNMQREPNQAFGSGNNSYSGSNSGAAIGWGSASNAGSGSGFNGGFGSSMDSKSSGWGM

Results are given in words; binding and its absence hold for the method and conditions named. In cells and extracts the contact can be indirect.

In the assay the target is TDP-43 (TAR DNA-binding protein 43) (UniProt Q13148). The assay is described as follows: co-IP.

B1: ASC1 (S. cerevisiae ortholog of RACK1) (protein, UniProt P38011 1-319)
chain: MASNEVLVLRGTLEGHNGWVTSLATSAGQPNLLLSASRDKTLISWKLTGDDQKFGVPVRSFKGHSHIVQDCTLTADGAYALSASWDKTLRLWDVATGETYQRFVGHKSDVMSVDIDKKASMIISGSRDKTIKVWTIKGQCLATLLGHNDWVSQVRVVPNEKADDDSVTIISAGNDKMVKAWNLNQFQIEADFIGHNSNINTLTASPDGTLIASAGKDGEIMLWNLAAKKAMYTLSAQDEVFSLAFSPNRYWLAAATATGIKVFSLDPQYLVDDLRPEFAGYSKAAEPHAVSLAWSADGQTLFAGYTDNVIRVWQVMTAN
In the case of B1, the binding entry is listed as “no binding”.
